Reference: the supplement of paper PMC10849652
Some of the results follow.

Protein sequences, listed by entry. Tags and fused reporters are not part of them. Lines headed by an entry give the natural chain unless they say otherwise; changes in a name come on top.
UniProt P15516: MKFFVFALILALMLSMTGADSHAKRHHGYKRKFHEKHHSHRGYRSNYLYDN
UniProt Q14642: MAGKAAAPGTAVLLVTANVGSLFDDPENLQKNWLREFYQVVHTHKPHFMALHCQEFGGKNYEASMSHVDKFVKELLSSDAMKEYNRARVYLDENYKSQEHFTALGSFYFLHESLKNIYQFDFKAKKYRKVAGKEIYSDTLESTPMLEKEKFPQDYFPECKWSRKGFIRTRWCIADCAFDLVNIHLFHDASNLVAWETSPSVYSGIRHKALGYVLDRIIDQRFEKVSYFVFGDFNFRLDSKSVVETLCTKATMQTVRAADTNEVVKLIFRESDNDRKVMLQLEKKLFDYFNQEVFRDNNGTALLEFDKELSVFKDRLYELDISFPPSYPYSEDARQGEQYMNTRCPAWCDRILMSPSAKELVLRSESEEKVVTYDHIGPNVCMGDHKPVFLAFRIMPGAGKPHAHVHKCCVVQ
UniProt Q9Y6K9, whole entry, looked up: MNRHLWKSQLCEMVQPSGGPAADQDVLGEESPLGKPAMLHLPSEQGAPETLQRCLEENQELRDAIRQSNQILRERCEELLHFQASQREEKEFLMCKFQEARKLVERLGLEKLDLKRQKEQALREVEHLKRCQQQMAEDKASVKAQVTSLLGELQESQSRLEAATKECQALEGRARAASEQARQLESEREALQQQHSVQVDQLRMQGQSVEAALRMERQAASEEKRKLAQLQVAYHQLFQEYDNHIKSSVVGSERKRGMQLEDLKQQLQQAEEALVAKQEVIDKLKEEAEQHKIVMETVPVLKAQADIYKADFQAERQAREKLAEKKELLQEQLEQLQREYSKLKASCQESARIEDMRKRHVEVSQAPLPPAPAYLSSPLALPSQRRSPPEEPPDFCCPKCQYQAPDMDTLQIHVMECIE
UniProt P40189: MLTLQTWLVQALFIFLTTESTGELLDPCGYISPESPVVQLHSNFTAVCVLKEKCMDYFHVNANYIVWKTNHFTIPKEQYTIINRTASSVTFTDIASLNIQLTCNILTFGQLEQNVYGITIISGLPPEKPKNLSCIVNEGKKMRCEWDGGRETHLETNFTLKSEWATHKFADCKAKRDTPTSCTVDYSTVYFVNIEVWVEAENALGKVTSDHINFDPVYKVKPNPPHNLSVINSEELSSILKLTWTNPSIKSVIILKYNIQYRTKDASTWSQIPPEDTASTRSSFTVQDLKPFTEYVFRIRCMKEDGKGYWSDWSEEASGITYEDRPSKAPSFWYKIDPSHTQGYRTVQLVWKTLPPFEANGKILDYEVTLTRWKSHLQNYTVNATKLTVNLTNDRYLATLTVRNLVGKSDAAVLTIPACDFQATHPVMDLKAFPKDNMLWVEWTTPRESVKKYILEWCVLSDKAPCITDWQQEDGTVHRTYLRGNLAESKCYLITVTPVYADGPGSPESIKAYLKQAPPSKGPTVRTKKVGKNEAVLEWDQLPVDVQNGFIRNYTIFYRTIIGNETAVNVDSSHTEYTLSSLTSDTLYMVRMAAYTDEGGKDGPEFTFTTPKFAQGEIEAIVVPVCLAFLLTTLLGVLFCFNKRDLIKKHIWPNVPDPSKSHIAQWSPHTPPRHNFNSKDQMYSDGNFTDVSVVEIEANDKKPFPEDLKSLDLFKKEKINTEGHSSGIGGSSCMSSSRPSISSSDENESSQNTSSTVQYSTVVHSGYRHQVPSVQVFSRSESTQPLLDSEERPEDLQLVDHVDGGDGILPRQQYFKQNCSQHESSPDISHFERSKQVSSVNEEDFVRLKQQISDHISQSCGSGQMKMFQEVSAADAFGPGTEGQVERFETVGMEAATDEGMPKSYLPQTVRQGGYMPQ
UniProt P61604, whole entry, looked up: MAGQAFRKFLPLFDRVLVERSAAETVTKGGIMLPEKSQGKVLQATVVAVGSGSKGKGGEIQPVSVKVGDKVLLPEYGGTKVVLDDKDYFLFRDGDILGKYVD
UniProt O43719: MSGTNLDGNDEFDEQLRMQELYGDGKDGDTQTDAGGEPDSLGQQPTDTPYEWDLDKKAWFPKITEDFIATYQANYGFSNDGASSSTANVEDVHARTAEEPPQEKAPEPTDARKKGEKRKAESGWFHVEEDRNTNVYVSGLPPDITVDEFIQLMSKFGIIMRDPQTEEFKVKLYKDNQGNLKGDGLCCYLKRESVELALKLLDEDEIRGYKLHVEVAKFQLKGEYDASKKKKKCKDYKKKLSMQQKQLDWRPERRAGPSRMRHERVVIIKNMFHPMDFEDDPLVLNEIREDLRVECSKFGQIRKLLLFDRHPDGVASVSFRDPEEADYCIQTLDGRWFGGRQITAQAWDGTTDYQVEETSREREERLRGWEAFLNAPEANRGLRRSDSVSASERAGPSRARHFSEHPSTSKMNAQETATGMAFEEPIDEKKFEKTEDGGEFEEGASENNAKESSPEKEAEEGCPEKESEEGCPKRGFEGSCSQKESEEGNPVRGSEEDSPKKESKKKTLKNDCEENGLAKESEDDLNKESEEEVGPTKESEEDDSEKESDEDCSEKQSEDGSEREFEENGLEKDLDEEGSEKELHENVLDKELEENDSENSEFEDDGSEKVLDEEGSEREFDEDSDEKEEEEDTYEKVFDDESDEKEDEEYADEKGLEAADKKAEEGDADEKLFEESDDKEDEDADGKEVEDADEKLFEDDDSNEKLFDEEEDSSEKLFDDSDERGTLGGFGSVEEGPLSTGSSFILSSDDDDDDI
UniProt Q9P2H3, whole entry, looked up: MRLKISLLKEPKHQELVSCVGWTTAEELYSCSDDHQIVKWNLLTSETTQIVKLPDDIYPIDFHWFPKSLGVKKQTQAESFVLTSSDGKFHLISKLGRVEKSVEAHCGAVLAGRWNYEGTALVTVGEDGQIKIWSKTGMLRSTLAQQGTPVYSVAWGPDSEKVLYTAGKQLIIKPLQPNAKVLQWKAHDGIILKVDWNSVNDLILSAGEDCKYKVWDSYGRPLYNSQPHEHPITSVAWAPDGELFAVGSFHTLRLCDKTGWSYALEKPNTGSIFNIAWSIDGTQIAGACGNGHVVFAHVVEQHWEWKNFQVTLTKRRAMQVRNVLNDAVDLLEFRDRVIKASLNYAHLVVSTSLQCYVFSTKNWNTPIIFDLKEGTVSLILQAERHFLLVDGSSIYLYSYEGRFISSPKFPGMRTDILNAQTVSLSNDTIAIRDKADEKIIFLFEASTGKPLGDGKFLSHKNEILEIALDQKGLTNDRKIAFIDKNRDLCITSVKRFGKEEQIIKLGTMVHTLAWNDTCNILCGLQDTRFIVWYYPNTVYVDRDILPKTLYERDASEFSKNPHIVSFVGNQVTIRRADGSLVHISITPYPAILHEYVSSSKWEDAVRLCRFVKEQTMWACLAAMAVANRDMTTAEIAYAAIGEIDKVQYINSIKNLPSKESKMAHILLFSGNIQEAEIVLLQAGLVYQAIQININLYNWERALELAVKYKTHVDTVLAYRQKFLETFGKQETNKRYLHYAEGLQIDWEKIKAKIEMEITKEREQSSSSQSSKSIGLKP
UniProt A1L0T0: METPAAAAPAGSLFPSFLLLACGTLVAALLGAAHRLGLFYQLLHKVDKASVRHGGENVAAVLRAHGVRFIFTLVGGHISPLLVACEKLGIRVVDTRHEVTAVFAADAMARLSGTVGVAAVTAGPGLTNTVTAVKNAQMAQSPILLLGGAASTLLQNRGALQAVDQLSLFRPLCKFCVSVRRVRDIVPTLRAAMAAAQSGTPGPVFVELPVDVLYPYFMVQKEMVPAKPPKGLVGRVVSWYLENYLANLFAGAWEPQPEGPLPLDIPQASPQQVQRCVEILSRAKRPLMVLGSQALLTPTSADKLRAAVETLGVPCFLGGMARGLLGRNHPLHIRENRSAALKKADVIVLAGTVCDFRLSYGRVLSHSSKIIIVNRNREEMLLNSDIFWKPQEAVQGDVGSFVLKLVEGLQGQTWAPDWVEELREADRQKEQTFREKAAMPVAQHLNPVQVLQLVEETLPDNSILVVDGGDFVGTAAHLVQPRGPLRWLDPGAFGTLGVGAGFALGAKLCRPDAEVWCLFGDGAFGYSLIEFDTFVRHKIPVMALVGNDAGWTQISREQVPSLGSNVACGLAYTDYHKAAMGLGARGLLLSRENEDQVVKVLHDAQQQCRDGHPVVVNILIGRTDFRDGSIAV
UniProt P41252: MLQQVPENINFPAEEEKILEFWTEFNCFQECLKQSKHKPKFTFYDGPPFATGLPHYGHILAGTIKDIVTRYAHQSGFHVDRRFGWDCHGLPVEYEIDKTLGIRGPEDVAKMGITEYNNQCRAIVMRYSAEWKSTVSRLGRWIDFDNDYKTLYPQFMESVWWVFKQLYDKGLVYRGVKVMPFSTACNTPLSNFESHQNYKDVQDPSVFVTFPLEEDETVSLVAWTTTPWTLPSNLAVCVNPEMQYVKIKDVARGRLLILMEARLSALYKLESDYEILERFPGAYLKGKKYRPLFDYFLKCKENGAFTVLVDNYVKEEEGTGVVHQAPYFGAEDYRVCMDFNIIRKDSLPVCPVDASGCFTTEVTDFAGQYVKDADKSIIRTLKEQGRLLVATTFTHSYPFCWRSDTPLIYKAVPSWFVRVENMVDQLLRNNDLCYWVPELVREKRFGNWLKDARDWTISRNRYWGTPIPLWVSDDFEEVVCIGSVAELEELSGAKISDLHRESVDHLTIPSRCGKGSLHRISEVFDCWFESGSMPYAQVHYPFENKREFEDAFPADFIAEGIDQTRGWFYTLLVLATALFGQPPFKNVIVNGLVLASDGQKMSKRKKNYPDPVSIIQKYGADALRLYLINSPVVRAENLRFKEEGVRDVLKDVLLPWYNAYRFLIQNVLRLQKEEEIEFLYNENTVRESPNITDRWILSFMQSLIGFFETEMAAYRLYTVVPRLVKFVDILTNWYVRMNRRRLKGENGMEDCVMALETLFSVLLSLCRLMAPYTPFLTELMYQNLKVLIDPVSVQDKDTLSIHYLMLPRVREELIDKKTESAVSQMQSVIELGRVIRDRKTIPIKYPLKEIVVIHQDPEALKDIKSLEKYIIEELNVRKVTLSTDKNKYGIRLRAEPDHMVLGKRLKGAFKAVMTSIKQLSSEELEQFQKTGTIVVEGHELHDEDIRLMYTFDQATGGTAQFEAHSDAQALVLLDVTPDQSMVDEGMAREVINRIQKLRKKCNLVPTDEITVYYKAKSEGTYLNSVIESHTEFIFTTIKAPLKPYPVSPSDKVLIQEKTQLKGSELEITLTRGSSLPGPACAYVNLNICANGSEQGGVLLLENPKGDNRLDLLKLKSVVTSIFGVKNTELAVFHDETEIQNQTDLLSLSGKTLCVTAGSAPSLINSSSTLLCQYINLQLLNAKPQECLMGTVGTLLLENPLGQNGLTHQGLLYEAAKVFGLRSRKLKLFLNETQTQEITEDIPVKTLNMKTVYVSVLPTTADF
UniProt Q9NXR8, whole entry, looked up: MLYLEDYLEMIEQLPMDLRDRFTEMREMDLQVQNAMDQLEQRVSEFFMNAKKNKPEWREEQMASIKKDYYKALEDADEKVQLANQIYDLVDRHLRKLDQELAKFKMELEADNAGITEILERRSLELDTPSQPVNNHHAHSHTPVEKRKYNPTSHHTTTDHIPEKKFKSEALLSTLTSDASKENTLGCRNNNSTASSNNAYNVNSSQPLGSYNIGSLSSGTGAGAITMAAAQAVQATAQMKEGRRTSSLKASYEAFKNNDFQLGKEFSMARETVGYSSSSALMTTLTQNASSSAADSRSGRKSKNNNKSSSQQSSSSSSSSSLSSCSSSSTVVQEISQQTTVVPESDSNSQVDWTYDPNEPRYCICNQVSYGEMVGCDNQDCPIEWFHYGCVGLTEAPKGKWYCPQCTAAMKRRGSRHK
UniProt Q13907: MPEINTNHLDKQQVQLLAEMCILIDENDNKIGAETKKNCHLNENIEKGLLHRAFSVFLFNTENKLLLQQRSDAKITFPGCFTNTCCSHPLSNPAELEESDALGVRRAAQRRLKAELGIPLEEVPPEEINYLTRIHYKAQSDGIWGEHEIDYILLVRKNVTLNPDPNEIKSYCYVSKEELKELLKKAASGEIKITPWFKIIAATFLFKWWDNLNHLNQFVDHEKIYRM
UniProt Q5TA45, whole entry, looked up: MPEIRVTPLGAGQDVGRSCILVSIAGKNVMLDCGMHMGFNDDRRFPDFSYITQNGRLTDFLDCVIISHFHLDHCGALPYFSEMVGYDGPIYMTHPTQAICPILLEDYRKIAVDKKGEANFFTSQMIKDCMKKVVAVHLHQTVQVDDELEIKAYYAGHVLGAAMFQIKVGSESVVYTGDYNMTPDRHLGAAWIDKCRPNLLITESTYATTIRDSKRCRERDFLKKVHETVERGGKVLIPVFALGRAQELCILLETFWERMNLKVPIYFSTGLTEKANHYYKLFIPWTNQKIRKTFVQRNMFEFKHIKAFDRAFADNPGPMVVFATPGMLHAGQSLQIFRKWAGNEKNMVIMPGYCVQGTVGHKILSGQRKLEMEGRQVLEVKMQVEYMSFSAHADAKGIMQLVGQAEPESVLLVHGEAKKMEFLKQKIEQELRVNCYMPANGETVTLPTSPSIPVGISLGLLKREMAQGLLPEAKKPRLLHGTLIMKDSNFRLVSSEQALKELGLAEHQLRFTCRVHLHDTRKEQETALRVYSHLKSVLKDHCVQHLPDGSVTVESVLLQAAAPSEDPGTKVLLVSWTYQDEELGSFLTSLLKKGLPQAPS

Columns and labels:
Test in all cases: log2 fold change, soluble protein after heating vs DMSO (PISA); higher = thermal stabilisation; K562 lysate, 10 uM; active = over 0.2 and 3.5 SD of the protein, either way, in both replicates (recomputed)
alvocidib = compound: CN1CC[C@H](c2c(O)cc(O)c3c(=O)cc(-c4ccccc4Cl)oc23)[C@H](O)C1 [alvocidib]
Procedure, shortened: (§1)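 Log-two fold change in thermal stability relative to solvent controls is reported from duplicates. For each sample, crude K562 extract from dounce-homogenised pellets in PBS pH 7.4 with 1 mM MgCl2, at 1 mg/mL protein, was treated with 10 μM compound for 30 min. Aliquots heated for 3 min across 48°C-58°C were pooled, brought to 0.5% NP-40 at 4°C and cleared at 21,000xg for 90 min. The supernatant was quantified by TMTpro 16plex LC-MS/MS with channel sums equalised.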

Tubastatin A = compound: CN1CCc2c(c3ccccc3n2Cc2ccc(C(=O)NO)cc2)C1 [Tubastatin A]
Procedure, shortened: as §1

[1] = compound: CNC(=O)C1=CC=CC=C1NC2=NC(=NC=C2Cl)NC3=C(C=C(C=C3)N4CCOCC4)OC
Procedure, shortened: as §1

defactinib = compound: CNC(=O)c1ccc(Nc2ncc(C(F)(F)F)c(NCc3nccnc3N(C)S(C)(=O)=O)n2)cc1 [defactinib]
Procedure, shortened: as §1

[2] = compound: CNc1nc(-c2ccc3c(N)n[nH]c3c2)cc(N2C[C@@H](C(=O)NC3CCCCC3)CC[C@H]2C)n1
Procedure, shortened: as §1

encorafenib = compound: COC(=O)N[C@@H](C)CNc1nccc(-c2cn(C(C)C)nc2-c2cc(Cl)cc(NS(C)(=O)=O)c2F)n1 [encorafenib]
Procedure, shortened: as §1

[3] = compound: COC(=O)[C@H](CCSC)NC(=O)C1=C(C=C(C=C1)NC[C@H](CS)N)C2=CC=CC=C2
Procedure, shortened: as §1

alisertib = compound: COc1cc(Nc2ncc3c(n2)-c2ccc(Cl)cc2C(c2c(F)cccc2OC)=NC3)ccc1C(=O)O [alisertib]
Procedure, shortened: as §1

[4] = compound: COc1cc2nc(-c3cc(F)ccc3O)nc(N[C@@H]3CNC[C@H]3C(C)(C)O)c2cc1OC
Procedure, shortened: as §1

gefitinib = compound: COc1cc2ncnc(Nc3ccc(F)c(Cl)c3)c2cc1OCCCN1CCOCC1 [gefitinib]
Procedure, shortened: as §1

Measured: log2 fold change

ICAM4 isoform 3 (UniProt Q14773)
inactive: alvocidib 0.024 | Tubastatin A 0.183 | [1] -0.078 | defactinib 0.004 | [2] 0.472 | encorafenib 0.312 | [3] -0.022

INPP4A (UniProt Q96PE3)
inactive: alvocidib -0.032 | Tubastatin A -0.051 | [1] 0.033 | defactinib 0.046 | [2] 0.009 | encorafenib 0.01 | [3] -0.019 | alisertib -0.026 | [4] 0.01 | gefitinib -0.033

INPP1 (UniProt P49441)
inactive: alvocidib -0.004 | Tubastatin A -0.031 | [1] -0.003 | defactinib 0.021 | [2] -0.068 | encorafenib -0.014 | [3] -0.022 | alisertib 0.035 | [4] -0.018 | gefitinib 0.105

HSPA8 (UniProt P11142)
inactive: alvocidib 0.005 | Tubastatin A 0.056 | [1] -0.036 | defactinib -0.003 | [2] -0.019 | encorafenib -0.004 | [3] 0.009 | alisertib 0.002 | [4] -0.004 | gefitinib 0.008

IGHA2 (UniProt P01877)
inactive: alvocidib -0.261 | Tubastatin A 1.22

IL13RA1 (UniProt P78552)
inactive: alvocidib -0.103

IMPA1 isoform 3 (UniProt P29218)
inactive: alvocidib 0.023 | Tubastatin A 0.031 | [1] -0.011 | defactinib -0.003 | [2] -0.001 | encorafenib -0.015 | [3] -0.039 | alisertib -0.009 | [4] 0.017 | gefitinib 0.021

HTN3 (UniProt P15516)
inactive: alvocidib -0.02

INPP5A (UniProt Q14642)
inactive: alvocidib -0.029 | Tubastatin A -0.067 | [1] -0.05 | defactinib -0.079 | [2] -0.14 | encorafenib 0.032 | [3] 0.135

IGF2BP2 (UniProt Q9Y6M1)
inactive: alvocidib 0.016 | Tubastatin A -0.124 | [1] 0.043 | defactinib -0.008 | [2] -0.014 | encorafenib 0.004 | [3] 0.201 | alisertib 0.042 | [4] -0.005 | gefitinib 0.001

IGHV3-72, A0A4W8ZXM2
inactive: alvocidib -0.128 | Tubastatin A 0.745 | [1] -0.057

IKBKG isoform 2 (UniProt Q9Y6K9)
inactive: alvocidib -0.049 | Tubastatin A 0.02 | [1] 0.026 | defactinib 0.015 | [2] 0.05 | encorafenib 0.016 | [3] -0.09 | alisertib 0.008 | [4] 0.053 | gefitinib -0.006

IMMT (UniProt Q16891)
inactive: alvocidib 0.031 | Tubastatin A -0.079 | [1] -0.03 | defactinib 0.019 | [2] -0.041 | encorafenib 0.014 | [3] -0.045 | alisertib 0.034 | [4] -0.145 | gefitinib -0.022

IL6ST (UniProt P40189)
inactive: alvocidib 0.135

IGKV1D-33, A0A2Q2TTZ9
inactive: alvocidib 0.208

IFNGR1 (UniProt P15260)
inactive: alvocidib -0.348 | Tubastatin A 0.157 | [1] -0.022 | defactinib -0.164 | [2] 0.272 | encorafenib -0.018 | [3] -0.002 | alisertib 0.138 | [4] 0.106 | gefitinib -0.036

HSPE1 (UniProt P61604)
inactive: alvocidib 0.052 | Tubastatin A 0.068 | [1] -0.019 | defactinib 0.037 | [2] 0.02 | encorafenib 0 | [3] -0.031 | alisertib 0.016 | [4] 0.016 | gefitinib -0.083

IDH3A (UniProt P50213)
inactive: alvocidib 0.014 | Tubastatin A -0.008 | [1] -0.012 | defactinib 0.01 | [2] -0.022 | encorafenib -0.028 | [3] 0.017 | alisertib -0.005 | [4] -0.018 | gefitinib -0.035

IFT81 (UniProt Q8WYA0)
inactive: alvocidib -0.24 | Tubastatin A 0.116

HTATSF1 (UniProt O43719)
inactive: alvocidib -0.037 | Tubastatin A -0.025 | [1] -0.018 | defactinib 0.004 | [2] -0.053 | encorafenib 0.017 | [3] 0.011 | alisertib -0.009 | [4] -0.013 | gefitinib -0.011

IFT80 isoform 3 (UniProt Q9P2H3)
inactive: alvocidib 0.076 | Tubastatin A -0.043 | [1] 0.076 | defactinib -0.163 | [2] 0.08 | encorafenib -0.024 | [3] 0.009 | alisertib -0.007 | [4] 0.004 | gefitinib 0.015

HYOU1 (UniProt Q9Y4L1)
inactive: alvocidib 0.008 | Tubastatin A 0.008 | [1] -0.01 | defactinib -0.032 | [2] 0.009 | encorafenib 0 | [3] 0.02 | alisertib 0.02 | [4] 0.025 | gefitinib 0

IDH3G (UniProt P51553)
inactive: alvocidib 0.023 | Tubastatin A -0.027 | [1] -0.015 | defactinib 0 | [2] -0.108 | encorafenib 0.005 | [3] 0.043 | alisertib 0 | [4] -0.001 | gefitinib -0.046

ICA1 (UniProt Q05084)
inactive: alvocidib -0.015 | Tubastatin A -0.082 | [1] 0.03 | defactinib -0.059 | [2] -0.061 | encorafenib 0.042 | [3] 0.055 | alisertib -0.028 | [4] 0.001 | gefitinib 0.015

HSPB11 (UniProt Q9Y547)
inactive: alvocidib 0 | Tubastatin A 0.052 | [1] -0.024 | defactinib 0.002 | [2] 0.068 | encorafenib -0.009 | [3] -0.044 | alisertib -0.001 | [4] 0.004 | gefitinib 0.015

HSPD1 (UniProt P10809)
inactive: alvocidib -0.02 | Tubastatin A 0.039 | [1] 0 | defactinib -0.031 | [2] 0.041 | encorafenib -0.021 | [3] 0.01 | alisertib 0 | [4] 0.019 | gefitinib -0.005

IKBKB (UniProt O14920)
inactive: alvocidib 0.073 | Tubastatin A 0.004 | [1] -0.014 | defactinib -0.006 | [2] -0.028 | encorafenib 0.02 | [3] 0.093 | alisertib -0.023 | [4] -0.033 | gefitinib 0.056

ILVBL (UniProt A1L0T0)
inactive: alvocidib -0.031 | Tubastatin A 0.087 | [1] -0.036 | defactinib -0.007 | [2] 0.127 | encorafenib 0.008 | [3] 0.011 | alisertib -0.025 | [4] 0.015 | gefitinib -0.047

INTS13 (UniProt Q9NVM9)
inactive: alvocidib -0.004 | Tubastatin A -0.06 | [1] 0.013 | defactinib -0.005 | [2] -0.015 | encorafenib -0.009 | [3] 0.139 | alisertib 0.048 | [4] -0.016 | gefitinib 0.041

IARS (UniProt P41252)
inactive: alvocidib 0.006 | Tubastatin A -0.134 | [1] 0.01 | defactinib 0.02 | [2] -0.03 | encorafenib 0 | [3] 0.134 | alisertib 0.02 | [4] 0.008 | gefitinib -0.021

ING3 (UniProt Q9NXR8)
inactive: alvocidib 0.04 | Tubastatin A -0.016 | [1] 0.019 | defactinib 0.035 | [2] 0.052 | encorafenib 0.12 | [3] 0.046 | alisertib -0.072 | [4] 0.032 | gefitinib -0.004

IDH1 (UniProt O75874)
inactive: alvocidib 0.013 | Tubastatin A -0.005 | [1] -0.015 | defactinib 0.038 | [2] -0.023 | encorafenib -0.018 | [3] 0.081 | alisertib 0.006 | [4] 0.017 | gefitinib -0.025

IDI1 (UniProt Q13907)
inactive: alvocidib -0.012 | Tubastatin A 0.035 | [1] -0.016 | defactinib -0.001 | [2] 0.004 | encorafenib -0.011 | [3] -0.025 | alisertib -0.003 | [4] 0.026 | gefitinib -0.058

Random excerpt: 2 entries already listed, in no set order.
INPP5A (UniProt Q14642)
inactive: alvocidib -0.029 | Tubastatin A -0.067 | [1] -0.05 | defactinib -0.079 | [2] -0.14 | encorafenib 0.032 | [3] 0.135

IDH1 (UniProt O75874)
inactive: alvocidib 0.013 | Tubastatin A -0.005 | [1] -0.015 | defactinib 0.038 | [2] -0.023 | encorafenib -0.018 | [3] 0.081 | alisertib 0.006 | [4] 0.017 | gefitinib -0.025

Next results:

IDUA (UniProt P35475)
inactive: alvocidib 0.104

INTS11 (UniProt Q5TA45)
inactive: alvocidib 0.026 | Tubastatin A -0.019 | [1] 0.036 | defactinib 0.043 | [2] -0.042 | encorafenib -0.02 | [3] 0.019 | alisertib -0.013 | [4] 0.024 | gefitinib 0.036

IMPAD1 (UniProt Q9NX62)
inactive: alvocidib 0.013 | Tubastatin A 0.022 | [1] 0.043 | defactinib -0.016 | [2] -0.006 | encorafenib 0.005 | [3] -0.023 | alisertib 0.009 | [4] -0.001 | gefitinib 0.085

IARS2 (UniProt Q9NSE4)
inactive: alvocidib 0.072 | Tubastatin A 0.021 | [1] -0.026 | defactinib 0.004 | [2] -0.003 | encorafenib -0.006 | [3] 0.014 | alisertib -0.013 | [4] -0.011 | gefitinib 0.004
